In this assay the target is human ANKLE1_(331–615) R492H (human) (UniProt Q8NAG6). Put plainly: SEC; Superdex 75 (10/300), 0.4 ml/min, 25 mM HEPES (pH 7.5), 0.1 M NaCl, 0.1 mM EDTA, 10% glycerol; elution compared with carbonic anhydrase (29 000 Da); calculated monomer mass 33 000 Da; both purified.

No constants are given. Whether binding was seen depends on the method and setting.

B1: human ANKLE1_(331–615) R492H (domain or fragment, UniProt Q8NAG6-2 331-615)
chain: MATLWLTEDEASSTGGREPVGPCRHLPVSTVSDLELLKGLRALGENPHPITPFTRQLYHQQLEEAQIAPGPEFSGHSLELAAALRTGCIPDVQADEDALAQQFEQPDPARRWREGVVKSSFTYLLLDPRETQDLPARAFSLTPAERLQTFIRAIFYVGKGTHARPYVHLWEALGHHGRSRKQPHQACPKVRQILDIWASGCGVVSLHCFQHVVAVEAYTREACIVEALGIQTLTNQKQGHCYGVVAGWPPARRRRLGVHLLHRALLVFLAEGERQLHPQDIQARG
For B1, the binding entry is given as “no binding”.

The record behind these values is article PMC10287932.
